Experimental data as given in PMC10502019.

The chains behind the UniProt entries cited, without tags or fusion partners.
UniProt E9PZQ0: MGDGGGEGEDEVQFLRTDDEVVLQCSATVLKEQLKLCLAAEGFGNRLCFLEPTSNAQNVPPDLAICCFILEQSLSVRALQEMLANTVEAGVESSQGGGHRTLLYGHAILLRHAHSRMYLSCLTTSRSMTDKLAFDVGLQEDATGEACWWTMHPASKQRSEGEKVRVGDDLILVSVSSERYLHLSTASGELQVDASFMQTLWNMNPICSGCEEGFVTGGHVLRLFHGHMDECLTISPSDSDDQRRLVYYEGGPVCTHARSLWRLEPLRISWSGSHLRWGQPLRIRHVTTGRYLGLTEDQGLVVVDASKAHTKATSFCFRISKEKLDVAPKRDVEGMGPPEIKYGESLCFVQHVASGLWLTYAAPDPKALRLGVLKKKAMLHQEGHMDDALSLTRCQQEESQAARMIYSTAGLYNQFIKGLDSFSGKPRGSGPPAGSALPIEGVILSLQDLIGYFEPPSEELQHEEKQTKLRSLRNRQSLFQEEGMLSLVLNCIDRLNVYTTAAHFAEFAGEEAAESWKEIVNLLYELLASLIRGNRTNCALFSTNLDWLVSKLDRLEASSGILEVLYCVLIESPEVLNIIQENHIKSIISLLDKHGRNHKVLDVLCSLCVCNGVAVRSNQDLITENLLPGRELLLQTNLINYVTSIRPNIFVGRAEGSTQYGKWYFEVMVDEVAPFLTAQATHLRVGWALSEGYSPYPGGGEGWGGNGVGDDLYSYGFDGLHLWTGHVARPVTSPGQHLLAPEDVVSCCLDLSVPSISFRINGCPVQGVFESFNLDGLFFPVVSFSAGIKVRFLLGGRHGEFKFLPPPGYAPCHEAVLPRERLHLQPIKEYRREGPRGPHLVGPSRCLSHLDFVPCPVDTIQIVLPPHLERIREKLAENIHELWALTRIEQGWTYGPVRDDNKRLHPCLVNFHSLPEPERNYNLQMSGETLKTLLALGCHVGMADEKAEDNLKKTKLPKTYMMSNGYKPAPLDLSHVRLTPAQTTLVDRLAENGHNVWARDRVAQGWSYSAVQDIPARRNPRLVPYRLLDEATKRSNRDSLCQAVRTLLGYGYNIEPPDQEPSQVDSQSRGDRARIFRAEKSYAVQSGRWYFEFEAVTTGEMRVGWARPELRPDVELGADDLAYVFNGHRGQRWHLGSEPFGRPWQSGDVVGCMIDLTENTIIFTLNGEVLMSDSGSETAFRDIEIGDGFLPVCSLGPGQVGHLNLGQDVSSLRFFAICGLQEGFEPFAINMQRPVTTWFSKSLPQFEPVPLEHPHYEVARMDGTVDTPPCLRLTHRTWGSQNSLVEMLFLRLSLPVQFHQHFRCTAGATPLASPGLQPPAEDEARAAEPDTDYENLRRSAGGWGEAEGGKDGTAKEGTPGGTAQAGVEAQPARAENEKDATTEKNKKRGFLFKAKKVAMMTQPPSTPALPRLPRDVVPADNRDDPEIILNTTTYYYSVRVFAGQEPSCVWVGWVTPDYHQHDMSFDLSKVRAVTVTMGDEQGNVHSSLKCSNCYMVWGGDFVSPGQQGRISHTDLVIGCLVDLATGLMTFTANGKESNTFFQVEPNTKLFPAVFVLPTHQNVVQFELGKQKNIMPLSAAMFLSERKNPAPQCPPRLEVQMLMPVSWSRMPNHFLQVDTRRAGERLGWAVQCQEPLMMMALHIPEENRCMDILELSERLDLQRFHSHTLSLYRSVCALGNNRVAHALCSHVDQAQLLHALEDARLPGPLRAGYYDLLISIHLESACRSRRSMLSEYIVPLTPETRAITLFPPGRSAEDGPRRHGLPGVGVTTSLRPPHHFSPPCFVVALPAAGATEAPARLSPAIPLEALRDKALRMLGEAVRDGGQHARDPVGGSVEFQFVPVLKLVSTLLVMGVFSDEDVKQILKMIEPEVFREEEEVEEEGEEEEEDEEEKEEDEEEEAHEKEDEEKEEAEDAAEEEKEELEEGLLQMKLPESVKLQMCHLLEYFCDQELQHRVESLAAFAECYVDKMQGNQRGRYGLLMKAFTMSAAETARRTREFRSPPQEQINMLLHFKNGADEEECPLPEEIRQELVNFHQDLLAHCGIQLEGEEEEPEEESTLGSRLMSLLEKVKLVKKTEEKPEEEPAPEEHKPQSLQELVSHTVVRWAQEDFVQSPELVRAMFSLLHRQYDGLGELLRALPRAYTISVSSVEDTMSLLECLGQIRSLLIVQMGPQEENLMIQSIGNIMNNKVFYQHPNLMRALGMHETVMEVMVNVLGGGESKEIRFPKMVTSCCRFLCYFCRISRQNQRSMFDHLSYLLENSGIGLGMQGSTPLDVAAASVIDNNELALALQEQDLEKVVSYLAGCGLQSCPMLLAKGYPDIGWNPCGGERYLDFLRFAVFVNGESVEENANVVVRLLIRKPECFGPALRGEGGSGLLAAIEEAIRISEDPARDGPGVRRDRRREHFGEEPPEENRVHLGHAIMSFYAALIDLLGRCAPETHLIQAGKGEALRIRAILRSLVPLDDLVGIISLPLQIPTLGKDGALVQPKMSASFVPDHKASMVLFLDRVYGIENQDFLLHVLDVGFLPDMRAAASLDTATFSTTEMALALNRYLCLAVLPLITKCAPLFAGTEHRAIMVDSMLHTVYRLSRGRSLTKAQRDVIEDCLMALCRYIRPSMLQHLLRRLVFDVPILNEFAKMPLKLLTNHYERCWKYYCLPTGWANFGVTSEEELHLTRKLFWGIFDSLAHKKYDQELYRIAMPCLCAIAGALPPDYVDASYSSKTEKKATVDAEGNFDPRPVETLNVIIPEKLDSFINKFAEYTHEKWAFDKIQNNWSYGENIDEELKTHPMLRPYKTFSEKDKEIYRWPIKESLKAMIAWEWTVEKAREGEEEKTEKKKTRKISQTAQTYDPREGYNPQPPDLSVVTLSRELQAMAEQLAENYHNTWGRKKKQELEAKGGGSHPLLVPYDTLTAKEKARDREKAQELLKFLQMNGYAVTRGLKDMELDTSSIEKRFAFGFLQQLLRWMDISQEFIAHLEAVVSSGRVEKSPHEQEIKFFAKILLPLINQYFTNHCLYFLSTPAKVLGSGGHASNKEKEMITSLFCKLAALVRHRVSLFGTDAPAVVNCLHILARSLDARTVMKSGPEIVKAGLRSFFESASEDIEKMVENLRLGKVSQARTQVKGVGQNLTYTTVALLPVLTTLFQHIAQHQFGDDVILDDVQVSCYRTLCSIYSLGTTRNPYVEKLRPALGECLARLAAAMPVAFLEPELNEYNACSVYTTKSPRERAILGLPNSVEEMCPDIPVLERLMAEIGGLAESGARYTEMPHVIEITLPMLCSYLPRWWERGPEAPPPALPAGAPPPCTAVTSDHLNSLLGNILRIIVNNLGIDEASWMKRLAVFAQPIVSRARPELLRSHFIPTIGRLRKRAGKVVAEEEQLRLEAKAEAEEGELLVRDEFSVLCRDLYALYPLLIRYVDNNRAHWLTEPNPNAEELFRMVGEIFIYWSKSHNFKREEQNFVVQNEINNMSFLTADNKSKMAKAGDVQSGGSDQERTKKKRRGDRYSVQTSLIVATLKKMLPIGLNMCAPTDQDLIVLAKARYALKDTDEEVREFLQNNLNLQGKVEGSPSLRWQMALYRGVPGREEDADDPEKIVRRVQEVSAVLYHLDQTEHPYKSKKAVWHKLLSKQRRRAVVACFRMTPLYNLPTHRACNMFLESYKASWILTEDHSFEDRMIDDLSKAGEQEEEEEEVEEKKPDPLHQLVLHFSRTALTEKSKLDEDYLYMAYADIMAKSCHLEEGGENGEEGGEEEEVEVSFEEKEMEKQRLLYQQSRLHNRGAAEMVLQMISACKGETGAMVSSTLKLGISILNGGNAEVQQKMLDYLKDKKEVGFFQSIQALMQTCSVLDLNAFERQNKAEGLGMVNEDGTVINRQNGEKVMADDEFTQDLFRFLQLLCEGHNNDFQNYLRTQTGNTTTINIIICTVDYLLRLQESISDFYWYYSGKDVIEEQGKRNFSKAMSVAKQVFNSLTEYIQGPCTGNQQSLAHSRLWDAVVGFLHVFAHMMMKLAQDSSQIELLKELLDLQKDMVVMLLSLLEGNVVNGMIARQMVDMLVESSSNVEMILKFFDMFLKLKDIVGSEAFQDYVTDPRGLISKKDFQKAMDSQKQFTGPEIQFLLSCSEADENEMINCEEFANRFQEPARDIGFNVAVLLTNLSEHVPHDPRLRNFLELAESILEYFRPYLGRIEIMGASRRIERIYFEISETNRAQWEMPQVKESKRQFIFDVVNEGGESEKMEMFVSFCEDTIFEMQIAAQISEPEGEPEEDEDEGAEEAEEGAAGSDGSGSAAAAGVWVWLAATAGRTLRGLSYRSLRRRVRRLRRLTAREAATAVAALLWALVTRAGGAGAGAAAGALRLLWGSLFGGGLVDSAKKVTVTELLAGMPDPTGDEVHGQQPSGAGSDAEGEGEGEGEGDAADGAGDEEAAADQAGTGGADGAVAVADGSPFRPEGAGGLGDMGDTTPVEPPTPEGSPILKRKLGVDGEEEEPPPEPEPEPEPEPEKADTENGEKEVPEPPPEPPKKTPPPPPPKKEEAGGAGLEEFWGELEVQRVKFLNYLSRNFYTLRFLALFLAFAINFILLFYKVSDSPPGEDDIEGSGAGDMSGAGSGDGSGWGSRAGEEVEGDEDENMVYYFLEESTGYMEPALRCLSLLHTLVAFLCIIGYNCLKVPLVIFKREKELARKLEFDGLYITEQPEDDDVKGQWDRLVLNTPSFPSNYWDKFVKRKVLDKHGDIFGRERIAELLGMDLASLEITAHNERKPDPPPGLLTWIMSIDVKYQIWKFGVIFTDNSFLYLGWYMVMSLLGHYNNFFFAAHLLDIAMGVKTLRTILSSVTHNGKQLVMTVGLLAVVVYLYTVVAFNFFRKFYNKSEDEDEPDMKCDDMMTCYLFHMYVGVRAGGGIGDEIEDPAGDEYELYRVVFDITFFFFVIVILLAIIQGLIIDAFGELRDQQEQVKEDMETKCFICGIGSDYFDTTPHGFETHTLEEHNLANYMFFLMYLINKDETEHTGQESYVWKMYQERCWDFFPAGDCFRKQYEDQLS
UniProt Q9ET78: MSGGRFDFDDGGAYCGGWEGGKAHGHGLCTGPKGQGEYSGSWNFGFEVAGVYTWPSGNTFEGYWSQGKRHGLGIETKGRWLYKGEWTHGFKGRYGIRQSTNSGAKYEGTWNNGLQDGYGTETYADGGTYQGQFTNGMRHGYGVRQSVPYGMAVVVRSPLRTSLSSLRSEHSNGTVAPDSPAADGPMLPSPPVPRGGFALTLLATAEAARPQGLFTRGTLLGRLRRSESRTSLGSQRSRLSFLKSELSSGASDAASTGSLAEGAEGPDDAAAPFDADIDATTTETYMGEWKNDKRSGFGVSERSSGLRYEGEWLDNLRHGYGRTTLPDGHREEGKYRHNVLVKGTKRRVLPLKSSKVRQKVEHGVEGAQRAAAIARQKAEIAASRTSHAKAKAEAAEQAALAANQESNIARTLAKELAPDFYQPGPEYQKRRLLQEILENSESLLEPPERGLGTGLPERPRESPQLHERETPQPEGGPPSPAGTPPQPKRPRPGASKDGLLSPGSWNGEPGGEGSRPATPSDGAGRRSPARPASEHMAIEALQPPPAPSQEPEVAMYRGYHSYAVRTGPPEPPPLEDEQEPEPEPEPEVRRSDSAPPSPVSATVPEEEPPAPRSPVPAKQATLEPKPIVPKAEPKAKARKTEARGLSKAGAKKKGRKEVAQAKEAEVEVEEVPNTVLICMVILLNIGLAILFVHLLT
UniProt P26883: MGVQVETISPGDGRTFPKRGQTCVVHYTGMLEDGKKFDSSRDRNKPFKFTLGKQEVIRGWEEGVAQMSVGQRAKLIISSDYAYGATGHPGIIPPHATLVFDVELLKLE
UniProt Q91WB2: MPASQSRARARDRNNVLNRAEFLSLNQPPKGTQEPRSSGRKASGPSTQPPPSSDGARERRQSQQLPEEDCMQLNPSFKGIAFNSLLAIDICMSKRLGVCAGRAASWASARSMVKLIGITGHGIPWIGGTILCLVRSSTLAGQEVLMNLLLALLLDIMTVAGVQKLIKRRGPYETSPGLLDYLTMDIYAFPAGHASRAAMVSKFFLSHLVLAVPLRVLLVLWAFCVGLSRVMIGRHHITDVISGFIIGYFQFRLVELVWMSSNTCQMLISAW
UniProt Q9Z1A1: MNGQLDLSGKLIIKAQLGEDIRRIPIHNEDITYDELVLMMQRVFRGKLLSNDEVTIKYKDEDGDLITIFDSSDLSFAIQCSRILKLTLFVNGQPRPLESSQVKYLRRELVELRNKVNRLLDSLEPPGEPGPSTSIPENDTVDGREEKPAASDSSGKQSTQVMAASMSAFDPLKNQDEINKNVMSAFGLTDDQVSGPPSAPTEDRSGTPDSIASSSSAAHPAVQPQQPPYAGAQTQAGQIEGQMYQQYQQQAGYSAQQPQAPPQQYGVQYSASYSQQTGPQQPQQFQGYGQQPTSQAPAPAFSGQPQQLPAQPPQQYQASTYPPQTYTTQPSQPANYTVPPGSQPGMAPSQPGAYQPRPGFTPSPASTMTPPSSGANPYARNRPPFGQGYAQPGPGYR

Key:
[1] = molecular target: RyR1 (ryanodine receptor 1, skeletal muscle Ca2+ release channel) (mouse (endogenous in mouse skeletal muscle)) (UniProt E9PZQ0); assay: affinity purification with mass spectrometry; RyR1 antibody IP from gastrocnemius muscle of control (Speg fl/fl) mice, also of Speg-KO and HA-Speg mice; specific: 20x over IgG and P < 0.01
[2] = molecular target: Jph2 (junctophilin 2) (mouse (endogenous in mouse muscle and heart)) (UniProt Q9ET78); assay: affinity purification with mass spectrometry; Jph2 antibody IP from gastrocnemius muscle of control mice, also of Speg-KO and HA-Speg mice; specific: 100x over IgG and P < 0.01
[3] = molecular target: RyR2 (ryanodine receptor 2, cardiac Ca2+ release channel) (mouse (endogenous in mouse heart)) (UniProt E9Q401); assay: affinity purification with mass spectrometry; RyR2 IP from hearts of control (Speg fl/fl) mice
[4] = molecular target: Jph2 (junctophilin 2) (mouse (endogenous in mouse muscle and heart)) (UniProt Q9ET78); assay: affinity purification with mass spectrometry; Jph2 antibody IP from hearts of control mice; specific: P < 0.01 and 100x over IgG
[5] = molecular target: HA-Spegβ (V5/HA-tagged striated muscle preferentially expressed protein kinase β) (mouse (endogenous knock-in in HA-Speg mice)) (UniProt Q62407); assay: affinity purification with mass spectrometry; HA antibody IP from hearts of HA-Speg mice
[6] = molecular target: HA-Spegβ (V5/HA-tagged striated muscle preferentially expressed protein kinase β) (mouse (endogenous knock-in in HA-Speg mice)) (UniProt Q62407); assay: affinity purification with mass spectrometry; HA antibody IP from gastrocnemius muscle of HA-Speg mice; HA antibody pulldowns from WT muscle define nonspecific; >10x purification, Holm-Sidak test and/or FDR; IP buffer 50 mM Tris-HCl pH 7.4, 170 mM NaCl, 1 mM EDTA, 1% NP-40
[7] = molecular target: T1, Fsd2 (Fibronectin Type III and SPRY Domain Containing 2) (mouse (endogenous in mouse muscle and heart)) (UniProt Q8BZ52); assay: affinity purification with mass spectrometry; Fsd2 antibody IP from skeletal muscle of control mice; specific: 20x over IgG and P < 0.01
T1 sequence: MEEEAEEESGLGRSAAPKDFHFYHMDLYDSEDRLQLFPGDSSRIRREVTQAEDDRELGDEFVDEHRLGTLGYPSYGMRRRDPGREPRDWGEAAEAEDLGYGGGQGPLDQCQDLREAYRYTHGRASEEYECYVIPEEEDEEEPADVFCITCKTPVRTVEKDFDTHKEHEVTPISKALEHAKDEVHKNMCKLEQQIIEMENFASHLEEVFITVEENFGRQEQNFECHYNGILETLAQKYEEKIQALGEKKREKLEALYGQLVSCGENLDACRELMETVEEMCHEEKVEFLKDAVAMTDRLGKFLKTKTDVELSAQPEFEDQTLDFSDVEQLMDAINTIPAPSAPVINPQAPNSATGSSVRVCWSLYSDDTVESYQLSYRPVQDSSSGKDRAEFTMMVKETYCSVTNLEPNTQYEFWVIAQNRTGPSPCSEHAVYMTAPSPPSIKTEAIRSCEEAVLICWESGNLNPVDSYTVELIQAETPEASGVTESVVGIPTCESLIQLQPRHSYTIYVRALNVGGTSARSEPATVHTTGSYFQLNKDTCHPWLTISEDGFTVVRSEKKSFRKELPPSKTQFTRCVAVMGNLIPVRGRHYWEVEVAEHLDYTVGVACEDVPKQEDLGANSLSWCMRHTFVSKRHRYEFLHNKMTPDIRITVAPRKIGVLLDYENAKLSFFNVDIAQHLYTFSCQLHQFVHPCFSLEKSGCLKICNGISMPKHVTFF

binding [1] | binding [2] | also measured | Substance
binds | binds |  | CaMKIIα (from UniProt P11798 1-478) (enzyme)
binds | binds |  | CaMKIIγ (from UniProt Q923T9 1-529) (enzyme)
 | binds | binding [3]: binds | CaMKIIδ (from UniProt Q6PHZ2 1-499) (enzyme)
 |  | binding [4]: binds | Cacna1c (CaV1.2α1c) (from UniProt Q01815 1-2139)
 | binds |  | Cacna1s (CaV1.1α1s) (from UniProt Q02789 1-1852)
binds | binds |  | Casq1 (calsequestrin 1) (from UniProt O09165 35-405)
 |  | binding [5]: binds; binding [6]: binds | Cmya5 (Cardiomyopathy-Associated Protein 5) (from UniProt Q70KF4 1-3739)
 | binds |  | Fkbp12 (FK506 binding protein 12) (from UniProt P26883 1-108)
 |  | binding [3]: binds | Nfs1 (cysteine desulfurase) (from UniProt Q9Z1J3 18-459) (enzyme)
 |  | binding [3]: binds | Ppapdc3 (an inactive sphingosine-1-phosphate phosphatase) (from UniProt Q91WB2 1-271)
 | binds |  | RyR1 (ryanodine receptor 1, skeletal muscle Ca2+ release channel) (from UniProt E9PZQ0 1-5035)
 |  | binding [7]: binds | Tfg (Trafficking From ER To Golgi Regulator) (from UniProt Q9Z1A1 1-397)
binds | binds | binding [6]: no binding | obscurin (Obscn) (from UniProt A2AAJ9 1-8886)

Results are given in words; binding and its absence hold for the method and conditions named. In cells and extracts the contact can be indirect. Here binding means that the protein was enriched with, or labelled near, the bait; the list need not be complete. For some assays here: A no says only that the protein was not detected with the bait.
